Measured values reported in patent US8785460B2, “Tricyclic compounds and use thereof” (Takeda Pharmaceutical Company Limited, priority 2008, dated 2014).
Some of these results come from one statement about several compounds together.

Target: T1, human CRF1 receptor (Homo sapiens, UniProt P34998)
T1 construct: expressed in transfected cells; host or cells: CHO cells (membrane fraction)
T1 sequence (P34998 24-415): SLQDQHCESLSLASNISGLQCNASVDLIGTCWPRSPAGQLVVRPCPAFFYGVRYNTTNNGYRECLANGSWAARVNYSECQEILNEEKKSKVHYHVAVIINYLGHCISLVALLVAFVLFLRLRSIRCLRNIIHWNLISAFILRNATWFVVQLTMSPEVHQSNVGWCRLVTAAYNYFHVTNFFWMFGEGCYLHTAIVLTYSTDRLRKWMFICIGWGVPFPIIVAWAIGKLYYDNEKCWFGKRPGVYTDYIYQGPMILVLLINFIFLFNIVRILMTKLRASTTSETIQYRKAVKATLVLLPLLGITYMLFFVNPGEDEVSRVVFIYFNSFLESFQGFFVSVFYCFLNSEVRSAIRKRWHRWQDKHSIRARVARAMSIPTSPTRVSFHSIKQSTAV
Experiment: Measurement of CRF Binding Inhibitory Rate (receptor binding experiment with 125I-CRF)
Conditions: human CRF1 receptor expressing CHO cellular membrane fraction, 50 pM 125I-CRF, room temperature 1.5 hr, 0.05 nM to 10 μM of compound; read-out: IC50 values (CRF binding inhibition)
Experimental: Measurement of CRF Binding Inhibitory Rate
A receptor binding experiment was carried out using a human CRF1 receptor expressing CHO cellular membrane fraction and ovine CRF, [^125I]-tyr^0(^125I-CRF). 1000 nM of a test compound was incubated with 1 μg of human CREF receptor expressing CHO cellular membrane fraction and 50 pM of ^125I-CRF in a binding assay buffer (50 mM Tris-HCl, 5 mM EDTA, 10 mM MgCl2, 0.05% CHAPS, 0.1% BSA, 0.5 mM PMSF, 0.1 μg/mL pepstatin, 20 μg/mL leupeptin, pH 7.5). In addition, for measuring nonspecific binding (NSB), 0.1 μM unlabelled human Urocortin was incubated with 5 μg of human CRE receptor expressing CHO cellular membrane fraction and 50 pM of ^125I-CRF in a binding assay buffer. After a binding reaction was carried out at room temperature for 1.5 hr, the membrane was entrapped on a glass filter (UniFilter plate GF-C/Perkin Elmer) by suction filtration using a cell harvester (Perkin Elmer), and washed with ice-cooled 50 mM Tris-HCl (pH 7.5). After drying the glass filter, a liquid scintillation cocktail (Microscinti 0, Perkin Elmer) was added, and the radioactivity of ^125I-CRF remaining on a glass filter was measured using Topcount (Perkin Elmer).
(TB−SB)/(TB−NSB)×100 (SB: radioactivity when a compound is added, TB: maximum binding radioactivity, NSB: nonspecific binding radioactivity) were calculated to obtain binding inhibitory rates under the range of the presence from 0.05 nM to 10 μM of each compound. The IC50 values were calculated by using GraphPad Prism software.

Which IC50 does the source give for Cc1cc(Cl)cc(Cl)c1N1CCCn2c1nc1c(Cl)ccc(C(O)CC3CC3)c12 (stereo not drawn) [Example 387, 1-[9-Chloro-1-(2,4-dichloro-6-methylphenyl)-1,2,3,4-tetrahydropyrimido[1,2-a]benzimidazol-6-yl]-2-cyclopropylethanol] here?
Its IC50 is < 1000 nM.

How did the IC50 turn out when C=CCCC(O)c1ccc(Cl)c2nc3n(c12)CCCN3c1c(C)cc(Cl)cc1Cl (stereo not drawn) [Example 382, 1-[9-Chloro-1-(2,4-dichloro-6-methylphenyl)-1,2,3,4-tetrahydropyrimido[1,2-a]benzimidazol-6-yl]pent-4-en-1-ol] was run?
The IC50 was < 1000 nM.

With CCC(O)c1ccc(Cl)c2nc3n(c12)CCCN3c1c(C)cc(Cl)cc1Cl (stereo not drawn) [Example 380, 1-[9-Chloro-1-(2,4-dichloro-6-methylphenyl)-1,2,3,4-tetrahydropyrimido[1,2-a]benzimidazol-6-yl]propan-1-ol] as the molecule, how does the IC50 read?
Its IC50 is < 1000 nM.

Which IC50 does the source give for C=CCC(O)c1ccc(Cl)c2nc3n(c12)CCCN3c1c(C)cc(Cl)cc1Cl (stereo not drawn) [Example 384, 1-[9-Chloro-1-(2,4-dichloro-6-methylphenyl)-1,2,3,4-tetrahydropyrimido[1,2-a]benzimidazol-6-yl]but-3-en-1-ol] here?
Its IC50 is < 1000 nM.

CCC(OC(C)=O)c1ccc(Cl)c2nc3n(c12)CCCN3c1ccc(OC)nc1C (single isomer, unassigned; (+)) [Example 267, (+)-1-[9-Chloro-1-(6-methoxy-2-methylpyridin-3-yl)-1,2,3,4-tetrahydropyrimido[1,2-a]benzimidazol-6-yl]propyl acetate] was tested. Which IC50 did it give?
Its IC50 is < 1000 nM.

For CCN(CC)c1cccc2nc3n(c12)CCCOC3c1ccc(Cl)cc1Cl (single isomer, unassigned) [Example 486, 1-(2,4-Dichlorophenyl)-N,N-diethyl-4,5-dihydro-1H,3H-[1,4]oxazepino[4,3-a]benzimidazol-7-amine], which IC50 is on record?
Its IC50 is < 1000 nM.
